MIC data for one compound are collected here from paper PMC11403616, “Arcopilins: A New Family of Staphylococcus aureus Biofilm Disruptors from the Soil Fungus Arcopilus navicularis” (Journal of Medicinal Chemistry, 2024).

≈ marks a conversion by molar mass, not a printed value.

This assay has as its system P. aeruginosa PA 14. As to the kind of experiment: MIC against bacteria (antimicrobial assay). Format: cell-based. The conditions noted are these: Pseudomonas aeruginosa, PA14, – = no activity observed under test conditions. The method, then: The antimicrobial activities of compounds 1–7 (Acp A–G) were assessed against different bacterial and fungal strains in addition to their cytotoxic effects on two mammalian cell lines. The tested microorganisms comprised a diverse array of clinically relevant pathogens, encompassing sensitive indicator strains. Among the Gram-positive bacteria were Bacillus subtilis, Staphylococcus aureus, and Mycolicibacterium smegmatis. Gram-negative bacteria included Acinetobacter baumannii, Chromobacterium violaceum, Escherichia coli, and Pseudomonas aeruginosa. Additionally, filamentous fungi such as Mucor hiemalis and yeasts including Candida albicans, Wickerhamomyces anomalus, Rhodotorula glutinis, and Schizosaccharomyces pombe were included. Generally, all compounds presented similar biological properties, summarized in weak or no activity against fungal pathogens as well as weak to moderate inhibition of Gram-positive bacteria (Table 2).
The antimicrobial and cytotoxic assays were performed according to the methods reported previously.[57]

Consider `CNC(C)C1CCC(N)C(OC2C(N)CC(N)C(OC3OCC(C)(O)C(NC)C3O)C2O)O1` (stereo not shown) [Gentamicin], for which 0.21 mg/L (≈ 0.44 µM) was the least that counted as inhibitory (MIC).

The term MIC denotes the least concentration at which growth counts as inhibited. A higher MIC goes with weaker potency.
